{"source": "patent US20070281960A1", "about": "“Anti-Histaminic Composition” (priority 2004, published 2007)", "origin": "cited, not measured here", "conditions": "more potent than loratadine; cited from earlier work", "data": [{"smiles": "Clc1ccc2c(c1)CCc1cccnc1C2=C1CCNCC1", "note": "[Desloratadine, 8-chloro-6,11-dihydro-11-(4-piperidylidene)-5-H-benzo [5,6] cyclohepta [1,2-b] pyridine]", "values": [{"measurement": "potency in-vivo relative to loratadine", "value": 10, "unit": "fold"}]}]}
